Experimental data reported in publication PMC6196236.

Each binder was assayed against FLAG-tagged TrxP^CS (C32S TrxP) (S. aureus strain Newman) (assay: affinity purification with mass spectrometry + cross-linking; mechanism-based trapping: FLAG-tagged Trx with the resolving Cys mutated to Ser expressed from pOS1 in S. aureus Newman (TrxA^CS in wild type; TrxP^CS and TrxQ^CSS in ΔtrxP/ΔtrxQ), 0.2 mM Na2S for 20 min; lysate on anti-FLAG M2 affinity gel 2 h at 4°C, eluted with 3x-FLAG peptide, trypsin, LC-MS/MS of mixed-disulfide crosslinked peptides; three biological replicates).

Binder | binding
3-hydroxy-3-methylglutaryl coenzyme A synthase (enzyme, UniProt Q9FD87 1-388) MTIGIDKINFYVPKYYVDMAKLAEARQVDPNKFLIGIGQTEMAVSPVNQDIVSMGANAAKDIITDEDKKKIGMVIVATESAVDAAKAAAVQIHNLLGIQPFARCFEMKEACYAATPAIQLAKDYLATRPNEKVLVIATDTARYGLNSGGEPTQGAGAVAMVIAHNPSILALNEDAVAYTEDVYDFWRPTGHKYPLVDGALSKDAYIRSFQQSWNEYAKRQGKSLADFASLCFHVPFTKMGKKALESIIDNADETTQERLRSGYEDAVDYNRYVGNIYTGSLYLSLISLLENRDLQAGETIGLFSYGSGSVVEFYSATLVVGYKDHLDQAAHKALLNNRTEVSVDAYETFFKRFDDVEFDEEQDAVHEDRHIFYLSNIENNVREYHRPE | binds
Probable malate:quinone oxidoreductase (enzyme, UniProt Q6G669 1-498) MAKSNSKDIVLIGAGVLSTTFGSMLKEIEPDWNIHVYERLDRPAIESSNERNNAGTGHAALCELNYTVLQPDGSIDIEKAKVINEEFEISKQFWGHLVKSGSIENPREFINPLPHISYVRGKNNVKFLKDRYEAMKAFPMFDNIEYTEDIEVMKKWIPLMMKGREDNPGIMAASKIDEGTDVNFGELTRKMAKSIEAHPNATVQFNHEVVDFEQLSNGQWEVTVKNRLTGEKFKQVTDYVFIGAGGGAIPLLQKTGIPESKHLGGFPISGQFLACTNPQVIEQHDAKVYGKEPPGTPPMTVPHLDTRYIDGQRTLLFGPFANVGPKFLKNGSNLDLFKSVKTYNITTLLAAAVKNLPLIKYSFDQVIMTKEGCMNHLRTFYPEARNEDWQLYTAGKRVQVIKDTPEHGKGFIQFGTEVVNSQDHTVIALLGESPGASTSVSVALEVLERNFPEYKTEWAPKIKKMIPSYGESLIEDEKLMRKIRKQTSKDLELGYYEN | binds
50S ribosomal protein L28 (protein, UniProt A6QGC4 1-62) MGKQCFVTGRKASTGNRRSHALNSTKRRWNANLQKVRILVDGKPKKVWVSARALKSGKVTRV | binds
Secretory antigen SsaA (protein, UniProt Q2FV55 27-255) AEQNNNGYNSNDAQSYSYTYTIDAQGNYHYTWTGNWNPSQLTQNNTYYYNNYNTYSYNNASYNNYYNHSYQYNNYTNNSQTATNNYYTGGSGASYSTTSNNVHVTTTAAPSSNGRSISNGYASGSNLYTSGQCTYYVFDRVGGKIGSTWGNASNWANAAASSGYTVNNTPKVGAIMQTTQGYYGHVAYVEGVNSNGSVRVSEMNYGHGAGVVTSRTISANQAGSYNFIH | binds
Fructose-bisphosphate aldolase (enzyme, UniProt A0ABV4SIW0 1-343) MPIATPEVYAEMLDRAKAGKFAYPAINVTSSQTLNAALRGFAEAESDGIIQISTGGAEFLGGQYNKDMVTGAVALAEYAHIIAEKYDVTVALHTDHCPKGKLDGYVRPLLDISAERVKAGRNPLFQSHMWDGSAETLADNLAIGQELLAKAAAAKIILEVEITPTGGEEDGVSHEINDELYTTVDDAIRTAEALGLGEKGRYLLAASFGNVHGVYKPGNVVLRPELLKDLQEGVGAKYGQTAGSQPFDFVFHGGSGSTEQEIATALENGVVKMNLDTDTQYAFTRPVADHMFRNYDGVLKVDGEVGVKSQYDPRTWGKSAEAGMAKRVSEACANLRSTGTKLK | binds

Results are given in words; binding and its absence hold for the method and conditions named. In cells and extracts the contact can be indirect. Here binding means that the protein was enriched with, or labelled near, the bait; the list need not be complete.
